This passage reports binding results from article PMC6390993.

The chains behind the UniProt entries cited, without tags or fusion partners. Where a name states a change or a piece, a line headed by the entry shows the natural chain unless it says otherwise.
UniProt O01483: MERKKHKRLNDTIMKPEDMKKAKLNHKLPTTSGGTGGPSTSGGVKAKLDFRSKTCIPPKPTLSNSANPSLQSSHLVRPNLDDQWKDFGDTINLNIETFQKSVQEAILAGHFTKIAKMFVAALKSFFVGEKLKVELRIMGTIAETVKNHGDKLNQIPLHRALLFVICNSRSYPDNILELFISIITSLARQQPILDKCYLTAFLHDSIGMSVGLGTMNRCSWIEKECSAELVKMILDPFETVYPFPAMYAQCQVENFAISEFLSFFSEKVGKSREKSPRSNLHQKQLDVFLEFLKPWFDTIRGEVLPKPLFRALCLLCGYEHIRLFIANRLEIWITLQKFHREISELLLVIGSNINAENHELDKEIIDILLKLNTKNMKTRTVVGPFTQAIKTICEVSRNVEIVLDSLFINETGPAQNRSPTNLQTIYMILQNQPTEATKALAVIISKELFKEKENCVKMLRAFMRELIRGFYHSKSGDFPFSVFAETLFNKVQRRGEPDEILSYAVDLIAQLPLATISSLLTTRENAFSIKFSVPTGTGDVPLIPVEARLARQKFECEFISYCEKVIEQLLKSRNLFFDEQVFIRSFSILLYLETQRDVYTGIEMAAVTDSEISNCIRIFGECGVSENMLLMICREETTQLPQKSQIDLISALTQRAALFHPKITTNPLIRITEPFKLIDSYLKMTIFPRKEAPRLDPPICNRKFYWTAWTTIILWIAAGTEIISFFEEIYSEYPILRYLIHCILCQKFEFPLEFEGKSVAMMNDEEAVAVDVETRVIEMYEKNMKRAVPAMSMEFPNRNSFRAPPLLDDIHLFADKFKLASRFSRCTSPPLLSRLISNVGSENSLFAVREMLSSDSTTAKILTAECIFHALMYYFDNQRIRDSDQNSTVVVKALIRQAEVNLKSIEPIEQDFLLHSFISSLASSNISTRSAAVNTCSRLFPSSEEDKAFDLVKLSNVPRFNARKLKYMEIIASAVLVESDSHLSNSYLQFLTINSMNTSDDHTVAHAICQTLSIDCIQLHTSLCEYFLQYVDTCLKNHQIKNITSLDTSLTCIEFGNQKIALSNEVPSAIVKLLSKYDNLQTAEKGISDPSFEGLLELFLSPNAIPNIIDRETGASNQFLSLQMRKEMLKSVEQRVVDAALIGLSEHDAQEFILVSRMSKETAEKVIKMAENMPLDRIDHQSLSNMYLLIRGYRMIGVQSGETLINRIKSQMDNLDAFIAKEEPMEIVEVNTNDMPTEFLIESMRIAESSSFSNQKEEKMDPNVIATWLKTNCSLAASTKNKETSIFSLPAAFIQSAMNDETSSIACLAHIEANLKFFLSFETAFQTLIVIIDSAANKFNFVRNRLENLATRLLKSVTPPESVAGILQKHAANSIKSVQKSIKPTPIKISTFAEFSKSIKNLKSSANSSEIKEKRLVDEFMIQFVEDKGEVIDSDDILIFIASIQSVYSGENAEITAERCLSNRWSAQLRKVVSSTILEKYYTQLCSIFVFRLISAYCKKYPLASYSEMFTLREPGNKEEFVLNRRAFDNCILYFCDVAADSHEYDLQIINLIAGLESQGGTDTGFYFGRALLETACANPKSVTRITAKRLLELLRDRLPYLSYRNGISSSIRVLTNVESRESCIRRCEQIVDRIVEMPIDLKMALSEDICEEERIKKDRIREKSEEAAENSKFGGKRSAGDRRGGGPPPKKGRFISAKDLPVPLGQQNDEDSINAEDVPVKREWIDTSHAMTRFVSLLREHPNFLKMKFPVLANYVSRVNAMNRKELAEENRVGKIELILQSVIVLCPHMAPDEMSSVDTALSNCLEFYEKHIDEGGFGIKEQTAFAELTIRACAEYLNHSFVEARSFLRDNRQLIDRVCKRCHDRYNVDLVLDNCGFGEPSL
UniProt O18167: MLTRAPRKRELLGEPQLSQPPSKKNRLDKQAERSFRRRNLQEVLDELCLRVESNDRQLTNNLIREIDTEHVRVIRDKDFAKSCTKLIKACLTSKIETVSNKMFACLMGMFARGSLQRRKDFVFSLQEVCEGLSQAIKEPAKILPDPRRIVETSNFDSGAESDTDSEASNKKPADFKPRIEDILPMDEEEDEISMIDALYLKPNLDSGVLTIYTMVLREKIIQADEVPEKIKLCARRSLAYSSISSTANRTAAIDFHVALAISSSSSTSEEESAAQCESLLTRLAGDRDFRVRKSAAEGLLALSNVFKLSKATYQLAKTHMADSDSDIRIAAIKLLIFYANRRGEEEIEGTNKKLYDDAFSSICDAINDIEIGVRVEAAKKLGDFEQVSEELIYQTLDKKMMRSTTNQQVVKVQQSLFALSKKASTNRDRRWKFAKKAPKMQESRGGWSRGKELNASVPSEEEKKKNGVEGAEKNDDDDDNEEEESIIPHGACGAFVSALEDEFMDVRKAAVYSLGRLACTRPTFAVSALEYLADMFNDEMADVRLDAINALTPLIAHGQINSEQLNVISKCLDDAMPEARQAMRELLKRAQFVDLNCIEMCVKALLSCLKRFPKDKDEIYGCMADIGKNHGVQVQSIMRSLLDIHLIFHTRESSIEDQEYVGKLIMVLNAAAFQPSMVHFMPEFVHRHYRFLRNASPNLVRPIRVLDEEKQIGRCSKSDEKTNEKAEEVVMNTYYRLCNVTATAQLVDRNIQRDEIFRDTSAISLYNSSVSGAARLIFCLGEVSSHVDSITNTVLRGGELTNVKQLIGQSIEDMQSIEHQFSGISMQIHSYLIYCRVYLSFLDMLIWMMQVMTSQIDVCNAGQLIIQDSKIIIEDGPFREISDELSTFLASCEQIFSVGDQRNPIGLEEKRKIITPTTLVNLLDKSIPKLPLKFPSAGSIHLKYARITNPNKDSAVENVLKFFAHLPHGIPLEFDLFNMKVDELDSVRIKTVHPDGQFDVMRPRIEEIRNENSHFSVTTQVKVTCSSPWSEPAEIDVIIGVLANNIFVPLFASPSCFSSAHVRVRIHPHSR
UniProt Q9U267: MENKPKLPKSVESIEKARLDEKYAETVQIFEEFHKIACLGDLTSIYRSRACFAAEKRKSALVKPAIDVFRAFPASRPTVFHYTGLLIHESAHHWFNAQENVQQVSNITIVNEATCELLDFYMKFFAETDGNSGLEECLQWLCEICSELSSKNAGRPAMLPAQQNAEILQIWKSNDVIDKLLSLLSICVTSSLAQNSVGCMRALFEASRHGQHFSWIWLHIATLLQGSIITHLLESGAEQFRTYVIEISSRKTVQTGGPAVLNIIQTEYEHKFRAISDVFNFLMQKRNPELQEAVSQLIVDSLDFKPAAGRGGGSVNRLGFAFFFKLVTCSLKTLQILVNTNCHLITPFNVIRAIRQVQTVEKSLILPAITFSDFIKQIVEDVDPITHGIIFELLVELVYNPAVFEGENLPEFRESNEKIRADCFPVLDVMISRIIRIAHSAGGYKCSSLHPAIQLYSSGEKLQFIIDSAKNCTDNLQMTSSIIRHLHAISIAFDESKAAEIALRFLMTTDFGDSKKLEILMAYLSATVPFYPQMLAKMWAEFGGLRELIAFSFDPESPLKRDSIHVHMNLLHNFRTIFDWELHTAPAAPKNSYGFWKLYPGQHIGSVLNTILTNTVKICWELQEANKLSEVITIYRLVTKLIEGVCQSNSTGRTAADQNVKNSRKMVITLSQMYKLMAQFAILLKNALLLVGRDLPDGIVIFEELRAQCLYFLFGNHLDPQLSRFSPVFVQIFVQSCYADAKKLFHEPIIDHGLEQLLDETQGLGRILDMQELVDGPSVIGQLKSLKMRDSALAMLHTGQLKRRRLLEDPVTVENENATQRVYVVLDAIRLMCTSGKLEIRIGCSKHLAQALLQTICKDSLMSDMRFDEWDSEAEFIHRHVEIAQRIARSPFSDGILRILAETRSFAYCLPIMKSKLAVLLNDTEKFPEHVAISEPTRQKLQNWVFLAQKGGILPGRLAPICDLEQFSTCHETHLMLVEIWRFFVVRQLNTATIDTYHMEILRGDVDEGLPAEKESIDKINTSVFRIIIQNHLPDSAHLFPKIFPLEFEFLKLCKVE
UniProt Q95ZM2: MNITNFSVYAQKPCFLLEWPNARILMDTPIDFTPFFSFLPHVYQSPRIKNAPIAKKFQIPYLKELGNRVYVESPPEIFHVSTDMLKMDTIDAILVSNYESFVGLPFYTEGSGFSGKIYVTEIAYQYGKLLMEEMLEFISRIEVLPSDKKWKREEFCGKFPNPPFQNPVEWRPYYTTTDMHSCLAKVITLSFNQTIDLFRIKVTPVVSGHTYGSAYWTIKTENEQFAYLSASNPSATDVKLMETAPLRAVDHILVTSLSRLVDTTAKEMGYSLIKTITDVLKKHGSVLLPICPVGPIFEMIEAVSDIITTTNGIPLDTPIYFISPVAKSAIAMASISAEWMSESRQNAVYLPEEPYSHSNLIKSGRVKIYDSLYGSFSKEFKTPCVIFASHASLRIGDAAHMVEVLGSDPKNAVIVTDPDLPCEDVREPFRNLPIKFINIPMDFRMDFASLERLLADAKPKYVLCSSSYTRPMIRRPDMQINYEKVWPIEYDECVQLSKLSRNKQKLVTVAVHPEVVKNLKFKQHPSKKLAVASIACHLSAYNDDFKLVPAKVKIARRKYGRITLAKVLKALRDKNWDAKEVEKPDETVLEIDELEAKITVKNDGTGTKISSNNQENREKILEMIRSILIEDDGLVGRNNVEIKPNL

These are yes or no findings as the source states them, for the method shown. In cells and extracts the contact can be indirect. Here binding means that the protein was enriched with, or labelled near, the bait; the list need not be complete.

This test has as its target INTS-6::3xFLAG::eGFP (C. elegans) (UniProt H2KZC8). The experiment in a line: affinity purification with mass spectrometry; anti-FLAG M2 magnetic beads (150 ul) with 30 mg protein extract of strain JCP378, 3-4 h or O/N at 4°C; washed three times with TBS (50 mM Tris HCl, 150 mM NaCl, pH 7.4); eluted by boiling in SDS sample buffer or with 3xFLAG peptide; Coomassie gel bands digested with trypsin, LC-MS/MS; WT N2 extract as control for nonspecific binding; four independent co-immunoprecipitations.
Turning to INTS-1 (C06A5.1) (from UniProt O01483), the binding result is reported as “binds”.
On to INTS-4 (W04A4.5) (from UniProt O18167), for which the binding entry is on record as “binds”.
With INTS-5 (Y51A2D.7) (from UniProt Q9U267), the binding result is on record as “binds”.
“INTS-9 (F19F10.12) (from UniProt Q95ZM2)”: the binding entry is listed as “binds”.
